From the supplement of paper PMC3334620
In all, about 33,000 sequences were measured (“E-score (-0.5 to 0.5)”: median about -0.0059, highest 2% from about 0.26 on). This is one part of the list.

Molecular target: T1, Cin5 (UniProt P40917)
T1 sequence: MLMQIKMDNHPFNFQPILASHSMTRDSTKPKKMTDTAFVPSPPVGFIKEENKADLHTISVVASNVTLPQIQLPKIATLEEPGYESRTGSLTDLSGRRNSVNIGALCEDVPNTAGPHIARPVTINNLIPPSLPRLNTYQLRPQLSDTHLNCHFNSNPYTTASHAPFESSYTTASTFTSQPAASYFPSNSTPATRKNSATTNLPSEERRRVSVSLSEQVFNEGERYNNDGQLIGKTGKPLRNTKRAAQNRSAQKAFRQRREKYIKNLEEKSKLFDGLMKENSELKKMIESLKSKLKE
Assay: PBM E-score (8-mer binding enrichment) (E-score (-0.5 to 0.5)); higher = stronger / more preferred TF binding
Conditions: protein concentration: 100 nM; construct: GST-full length
Method in brief: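 For each ungapped eight-base word taken together with its reverse complement, the Universal PBM Analysis Suite assigned an E-score. Binding data came from GST-tagged yeast transcription factors, applied at about 100-200 nM, on universal all-10-mer Agilent arrays made double-stranded by primer extension. Fluorescent anti-GST marked bound protein, and scans were normalised with masliner.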

| Sequence | PBM E-score |
| --- | --- |
| ACAACCCT | -0.0604 |
| ATTTGAAA | 0.172 |
| ACATCAAA | 0.178 |
| CCAAAGGA | -0.0559 |
| AGAGATGC | -0.0523 |
| ATGTCCAG | -0.0453 |
| ATCCGGAT | 0.259 |
| ATCCGGTA | 0.096 |
| AGAATTTC | -0.117 |
| ATGTACAG | -0.149 |
| CAATTCGA | -0.159 |
| GCTTATCC | 0.236 |
| CGACGTAG | -0.242 |
| CCAGGTAG | -0.131 |
| CAGTCCAC | -0.147 |
| ATCAGGAT | 0.0485 |
| CTTCAAAG | -0.213 |
| ACCCTAGA | 0.0475 |
| ACTAAAGA | -0.0785 |
| CAGTTTTA | 0.0232 |
| AGTTACCC | -0.085 |
| GCCAATGA | -0.126 |
| GACGCTGC | -0.177 |
| CGTGAGGA | -0.08 |
| ACTCAACA | 0.168 |

In a second layout: results already given
Sequence | PBM E-score
ACAACCCT | -0.0604
ACATCAAA | 0.178
ATCCGGAT | 0.259
CGACGTAG | -0.242
CCAGGTAG | -0.131
AGTTACCC | -0.085
ACTCAACA | 0.168

Next part:

| Sequence | PBM E-score |
| --- | --- |
| GGACCGCA | -0.174 |
| AGACGCAG | -0.0878 |
| CTTACCGC | 0.0457 |
| CTACCAAC | -0.03 |
| TCGCTGAA | 0.205 |
| AACGTGCG | -0.0964 |
| ATAAGTGG | 0.0505 |
| CGCACCAC | -0.0513 |
| CTACTTCA | -0.0153 |
| GCGGACTA | -0.00614 |
| CGAATTAG | 0.171 |
| CACCTTCG | -0.164 |
| GGGTATAC | 0.0462 |
| ATGTAGGC | -0.0343 |
| ATACATTG | 0.162 |
| AGGCAACA | -0.126 |
| TCGCACAA | -0.00928 |
| AGGCGGAA | -0.0282 |
| GGGCGGTA | -0.169 |
| AAACCAAC | -0.0629 |
| ATTATAGG | 0.184 |
| ATCGTATA | 0.115 |
| AATTACAC | 0.0804 |
| CAAGTGCA | -0.208 |
| CAATAAGG | -0.0974 |

| Sequence | PBM E-score |
| --- | --- |
| GCAATTAC | 0.114 |
| TAATCAAA | 0.329 |
| AAACCTAT | -0.0458 |
| ATGGCGGC | -0.0372 |
| ACTGACCA | -0.174 |
| CCTCTACG | -0.288 |
| GCAGATCA | -0.116 |
| ACCAGGAT | 0.128 |
| CCTCCGGC | -0.19 |
| CTATATGA | 0.102 |
| TCCTGACA | 0.0835 |
| ACACCAAT | 0.239 |
| ATTCCTAG | -0.00114 |
| ACGGCTTG | -0.0627 |
| CGGTGTGC | -0.31 |
| ACTGTACA | -0.112 |
| TAAAAAAA | 0.0163 |
| GGTTGAGA | -0.0268 |
| TATCTGGA | -0.212 |
| ACTTCTAC | 0.0435 |
| AGCGTGTC | -0.223 |
| CGCCGACA | -0.0905 |
| CACGCCGC | -0.246 |
| AAGGCAGG | -0.0771 |
| AACGTGAG | -0.126 |

Individual results from the entries so far.
Entry for ACGGCTTG under PBM E-score: -0.0627
Entry for CTATATGA under PBM E-score: 0.102
Entry for ACACCAAT under PBM E-score: 0.239
Entry for TATCTGGA under PBM E-score: -0.212

(cont.)

| Sequence | PBM E-score |
| --- | --- |
| CAGCCAAC | -0.0978 |
| CTATATAA | 0.0999 |
| AGCGGTAT | 0.158 |
| AATATTCT | 0.141 |
| CAGAACTG | 0.142 |
| CGGACCCA | -0.178 |
| AGGTCAAT | 0.13 |
| GTGCATCA | 0.00241 |
| AGAGCGTC | -0.139 |
| GGCAGCTA | 0.00359 |
| AAAGGCGA | -0.17 |
| GGCGCTAC | -0.319 |
| ACACGGTG | -0.117 |
| CGGATCGA | -0.0684 |
| CCAACCCA | -0.122 |
| ATTCAGGC | 0.0005 |
| CCACGGTC | -0.307 |
| ACGACCAT | -0.0488 |
| AATAAGGT | 0.16 |
| ATGATAAG | 0.204 |
| ACAAGCGT | -0.0311 |
| ATCTAGGA | -0.0915 |
| ACCAATTC | 0.129 |
| CGGCTCCA | -0.18 |
| CAAACAGA | 0.147 |

| Sequence | PBM E-score |
| --- | --- |
| ATTCCGCC | 0.215 |
| CCAGTGCG | -0.193 |
| CATGTTGC | -0.00801 |
| ATCTTTAG | 0.0503 |
| CCGATGAC | 0.0129 |
| CCACTCGG | -0.243 |
| TATACGCA | 0.105 |
| AGTCGCGC | 0.0623 |
| ACAGCGAT | -0.0662 |
| CGTCCTGC | -0.154 |
| CGATGACC | -0.0747 |
| CTGATGCA | 0.0452 |
| ATGAATCC | 0.0999 |
| GCATTCCA | -0.196 |
| ATGGTGAA | -0.0746 |
| AAAACTAA | 0.275 |
| CGCGAAAC | 0.13 |
| CGTACGTA | 0.132 |
| AGCGCAGA | -0.154 |
| CTCATATA | 0.0845 |
| CGCATCCC | -0.278 |
| GTTAAGTA | 0.168 |
| AATATCGA | 0.326 |
| CGCCGGTA | -0.0893 |
| CAGCCGAA | -0.0165 |

| Sequence | PBM E-score |
| --- | --- |
| CACGGGAG | -0.255 |
| ACGGGCCT | -0.373 |
| AAACTATT | 0.124 |
| GATCCGGC | -0.00016 |
| CAATAGGA | -0.124 |
| CGAACCCG | -0.162 |
| ACAAACGC | 0.0649 |
| ACGCCGAA | -0.0631 |
| CATCAATA | 0.139 |
| CGAAACCA | 0.0433 |
| ACCGATAT | -0.0255 |
| AACATTAC | 0.148 |
| AACAACAC | 0.235 |
| CCATTCGG | -0.0124 |
| AAGAGACT | -0.225 |
| AGATATCT | -0.0465 |
| CTCGGTAA | -0.0199 |
| AGATGGGC | -0.0732 |
| TAGTAATA | 0.27 |
| ACTACCAT | 0.0887 |
| ACTAGGGA | -0.0822 |
| AAGCTTAT | 0.231 |
| CAAAGTAC | -0.0568 |
| CACGAATA | 0.225 |
| AATTAAAC | 0.203 |

| Sequence | PBM E-score |
| --- | --- |
| AGGCTTAG | 0.0724 |
| GCAAGGAA | -0.0209 |
| ACCCGTAT | -0.0338 |
| GCGTCTAC | -0.146 |
| AGATTCTA | 0.00296 |
| ATACTACG | 0.108 |
| CAGCCATC | 0.022 |
| AGCGGGCG | -0.0666 |
| CAGGTCGG | -0.116 |
| GCAGGAGA | -0.109 |
| ACCACTTA | -0.00102 |
| CTATCCGC | 0.151 |
| GACCCAGC | -0.271 |
| CTTATTGA | 0.125 |
| ATGCGGCA | 0.0715 |
| GATCGCTA | 0.021 |
| GCACTGGA | -0.0638 |
| AAAGTAGA | 0.0339 |
| CTCGACGA | -0.0716 |
| CCTGCTCG | -0.226 |
| CTCAGGGA | -0.0496 |
| GCCAATCC | -0.0446 |
